The target of assay [1] is 3XFlag-tagged overexpression HNRNPU protein (heterogeneous nuclear ribonucleoprotein U) (UniProt Q00839). Kind of assay: co-IP; tagged protein (HNRNPU-Flag, its Flag-tagged mutants, or DDX5-Myc) in HEK293T against the endogenous partner; NP40 buffer, antibody overnight at 4 °C, protein G magnetic beads, immunoblotting. For orientation: Immunoblotting shows a protein as a band on a membrane.

Amino acid sequences for entries named in this document (tags omitted).
UniProt Q00839: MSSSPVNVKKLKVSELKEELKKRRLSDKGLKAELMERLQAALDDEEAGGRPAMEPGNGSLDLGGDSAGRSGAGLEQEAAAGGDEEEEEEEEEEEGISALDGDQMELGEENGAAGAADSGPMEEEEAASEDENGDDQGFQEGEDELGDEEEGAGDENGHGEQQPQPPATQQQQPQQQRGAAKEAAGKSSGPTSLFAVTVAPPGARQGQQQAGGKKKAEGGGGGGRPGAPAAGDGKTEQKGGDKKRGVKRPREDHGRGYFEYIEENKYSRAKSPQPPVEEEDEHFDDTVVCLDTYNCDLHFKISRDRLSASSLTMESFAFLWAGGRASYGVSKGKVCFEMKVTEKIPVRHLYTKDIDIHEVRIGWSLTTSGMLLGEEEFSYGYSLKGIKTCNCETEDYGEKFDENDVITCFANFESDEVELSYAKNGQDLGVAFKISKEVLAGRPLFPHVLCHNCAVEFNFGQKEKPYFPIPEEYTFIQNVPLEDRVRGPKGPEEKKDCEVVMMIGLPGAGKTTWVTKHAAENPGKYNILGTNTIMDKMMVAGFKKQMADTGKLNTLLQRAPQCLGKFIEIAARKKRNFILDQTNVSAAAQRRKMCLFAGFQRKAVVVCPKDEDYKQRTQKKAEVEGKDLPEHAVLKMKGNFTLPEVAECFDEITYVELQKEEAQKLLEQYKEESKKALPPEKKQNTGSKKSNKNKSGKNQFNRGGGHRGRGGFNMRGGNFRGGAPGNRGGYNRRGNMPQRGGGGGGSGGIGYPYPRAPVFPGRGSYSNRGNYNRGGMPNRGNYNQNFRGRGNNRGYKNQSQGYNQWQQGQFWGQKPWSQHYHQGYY
UniProt P17844: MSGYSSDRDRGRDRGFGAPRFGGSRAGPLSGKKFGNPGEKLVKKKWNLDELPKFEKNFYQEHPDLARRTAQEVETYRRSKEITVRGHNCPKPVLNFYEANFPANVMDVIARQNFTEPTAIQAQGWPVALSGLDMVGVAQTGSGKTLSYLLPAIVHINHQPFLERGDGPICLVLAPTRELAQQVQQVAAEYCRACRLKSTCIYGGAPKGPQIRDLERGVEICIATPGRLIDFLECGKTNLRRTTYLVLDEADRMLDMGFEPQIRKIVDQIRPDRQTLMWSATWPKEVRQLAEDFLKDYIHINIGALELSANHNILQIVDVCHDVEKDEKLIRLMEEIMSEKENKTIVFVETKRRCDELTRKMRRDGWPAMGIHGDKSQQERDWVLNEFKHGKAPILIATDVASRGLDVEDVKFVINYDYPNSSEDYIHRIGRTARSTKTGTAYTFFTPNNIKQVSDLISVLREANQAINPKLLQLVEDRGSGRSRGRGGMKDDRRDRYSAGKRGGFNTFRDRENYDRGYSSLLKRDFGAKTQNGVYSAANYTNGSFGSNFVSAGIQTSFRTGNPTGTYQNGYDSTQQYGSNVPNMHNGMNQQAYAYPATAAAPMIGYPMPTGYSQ

The target in assay [2] is endogenous HNRNPU (heterogeneous nuclear ribonucleoprotein U) (human (endogenous in HEK293T)) (UniProt Q00839). The experiment in a line: co-IP; endogenous HNRNPU and endogenous DDX5 in HEK293T cells; immunoblotting.

These are yes or no findings as the source states them, for the method shown. Binding seen in cells or lysates may run through a third protein. Some entries that bind do so weakly or less than the wild type.

In the case of “endogenous DDX5 (DEAD box helicase 5) (from UniProt P17844 1-614)”, the binding entry in assay [1] and in assay [2] was “binds” in each case.

For the origin of these results see article PMC9643420.
